In brackets after ≈: the same amount, converted by molar mass. Where two headings read alike, the source gives them in different places.
System: S. aureus virulent CVCC546
Assay: MIC in MHB at pH 7.3 and 5.0
Format: cell-based
Conditions: Staphylococcus aureus
Source text: The cleavable cathepsin sites in the peptides were predicted by the SitePrediction website (http://www.dmbr.ugent.be/prx/bioit2-public/SitePrediction/)[55].

Compound: CN[C@H](CC(C)C)C(=O)N[C@H]1C(=O)N[C@@H](CC(N)=O)C(=O)N[C@H]2C(=O)N[C@H]3C(=O)N[C@H](C(=O)N[C@H](C(=O)O)c4cc(O)cc(O)c4-c4cc3ccc4O)[C@H](O)c3ccc(c(Cl)c3)Oc3cc2cc(c3O[C@@H]2O[C@H](CO)[C@@H](O)[C@H](O)[C@H]2O[C@H]2C[C@](C)(N)[C@H](O)[C@H](C)O2)Oc2ccc(cc2Cl)[C@H]1O [Vancomycin]
- MIC (pH 5, read-out: MICs): 1 µg/mL (≈ 0.69 µM)
- MIC (pH 7.3, read-out: MICs): 1 µg/mL (≈ 0.69 µM)

From publication PMC5844868, “Increased intracellular activity of MP1102 and NZ2114 against Staphylococcus aureus in vitro and in vivo” (Scientific Reports, 2018)
